Reference: PubChem BioAssay (NCATS)
This list was built around the results that the source calls inconclusive (neither active nor inactive); the mix of calls is not that of the screen. Potencies of inconclusive entries are doubtful fits and often do not repeat. Active and inactive are the calls of the source. Calls follow the shape of the dose curve; as a rule, active = well fitted cell-killing curve with a large enough effect; inconclusive = small, poorly fitted or top-dose-only effect, or effect the other way; inactive = no such curve, though single readings can be large or run the other way.

experiment: Quantitative High-Throughput drug screen in 47 multiple myeloma cell lines against the NCATS MIPE library collection: PCM6_Riken cell viability assay (AID 1919870); conditions: CellTiter-Glo ATP, 48 h; viability (% of control): at 45.8 µM (top of the series); also: nearly all actives have a fitted effect of over 30% in size
Text: PI: Beverly A. Mock Ph.D.
Laboratory of Cancer Biology and Genetics,
Center for Cancer Research, National Cancer Institute,
National Institute of Health, Bethesda, Maryland
Drug resistance and disease progression are common in multiple myeloma (MM) patients, underscoring the need for new therapeutic combinations. […] We hypothesized that effective combinations would reduce MYC expression and enhance p16 activity. […] These preclinical data identify potentially useful drug combinations for evaluation in drug-resistant MM and reveal potential mechanisms of combined drug sensitivity.
Described herein is the primary MIPE qHTS used to cherrypick compounds. Validated compounds were then further tested for potential synergistic activiy.
[1] Peat TJ, Gaikwad SM, Dubois W, Gyabaah-Kessie N, Zhang S, Gorjifard S, Phyo Z, Andres M, Hughitt VK, Simpson RM, Miller MA, Girvin AT, Taylor A, Williams D, D'Antonio N, Zhang Y, Rajagopalan A, Flietner E, Wilson K, Zhang X, Shinn P, Klumpp-Thomas C, McKnight C, Itkin Z, Chen L, Kazandijian D, Zhang J, Michalowski AM, Simmons JK, Keats J, Thomas CJ, Mock BA. Drug combinations identified by high-throughput screening promote cell cycle transition and upregulate Smad pathways in myeloma. Cancer Lett. 2023 Aug 1;568:216284. doi: 10.1016/j.canlet.2023.216284. Epub 2023 Jun 24. PMID: 37356470; PMCID: PMC10408729.
SEQUENCE No. (e.g., 1, 2, 3, etc.); […] (e.g., Cells, Incubation, Reagent, etc.); VALUE and DESCRIPTION.
1; Cells; 5 uL; white, solid bottom 1536-well Greiner assay plate.
2; Compounds; 23 nL; Kalypsis pin tool (Wako USA) equipped with a 1536-well pin head to transfer to the assay plates.
3; Incubation; 48 hours; 37C incubation.
4; Reagent;5uL; CellTiter Glo (Promega).
5; Detector; 425V; Luminescence; Viewlux PerkinElmer.
NOTES (numbers refer to Sequence numbers above)
1. The cell-based screening methods employed in this study were like those previously published. Briefly, the corresponding myeloma cell lines were screened in 1,536-well plates with 500 cells, 5-uL per well for inhibition of cell viability (assessed by measuring ATP levels with CellTiterGlo).
2. NCATS MIPE 4.0 library of approved and investigational drugs were added using the Kalypsis pin tool. Wells treated with DMSO only for 100% viability and media only for 0% viability were used as controls.
3. The assay plates were covered and incubated for 48 hours in a 37C, 5% CO2 incubator with controlled humidity.
4. After 48 hours, CellTilter-GloTM luminescent substrate mix (Promega) reagent was added to the assay plate and plates we incubated for 5 min at room temperature.
5. Signal was measured as median relative luminescence units on a ViewLux (PerkinElmer) multiplate reader.
[1] Heske CM, Davis MI, Baumgart JT, Wilson K, Gormally MV, Chen L, Zhang X, Ceribelli M, Duveau DY, Guha R, Ferrer M, Arnaldez FI, Ji J, Tran HL, Zhang Y, Mendoza A, Helman LJ, Thomas CJ. Matrix Screen Identifies Synergistic Combination of PARP Inhibitors and Nicotinamide Phosphoribosyltransferase (NAMPT) Inhibitors in Ewing Sarcoma. Clin Cancer Res. 2017 Dec 1;23(23):7301-7311. doi: 10.1158/1078-0432.CCR-17-1121. Epub 2017 Sep 12. PMID: 28899971; PMCID: PMC6636827.
Potency is read from the fitted curve at half-maximal effect.

Structure (SMILES)	Potency	viability (% of control)
O=C(O)C1=CC(O)C(O)[C@H](O)C1 (stereo not given in full)	inconclusive: 6.62 µM [cytotoxic, single point]	
CCCNCC(O)COc1ccccc1C(=O)CCc1ccccc1 (stereo not given)		inactive: 92%
CN1CCN(Cc2ccc(NC(=O)Nc3ccc(Oc4cc(NC(=O)C5CC5)ncn4)cc3)cc2C(F)(F)F)CC1	active: 0.105 µM	
CC[C@@H]([C@H](C)O)n1ncn(-c2ccc(N3CCN(c4ccc(OCC5CO[C@@](Cn6cncn6)(c6ccc(F)cc6F)C5)cc4)CC3)cc2)c1=O (stereo not given in full)	inconclusive: 20.9 µM [cytotoxic, partial curve]	
CC(CCc1ccc(O)cc1)NCCc1ccc(O)c(O)c1 (stereo not given)	active: 20.9 µM	
O=C(O)c1cc(=O)[nH]c(=O)[nH]1		inactive: 143%
CC(C)(Cc1ccc2ccccc2c1)NC[C@@H](O)COc1cccc(Cl)c1C#N		inactive: 111%
Clc1cc(Cl)cc(CNc2ncncc2-c2ccc3c(c2)OCO3)c1	inconclusive: 20.9 µM [cytotoxic, partial curve, poor fit]	
CC1(C)[C@H](C(=O)O)N2C(=O)C[C@H]2S1(=O)=O	inconclusive: 4.18 µM [cytotoxic, partial curve, poor fit]	
c1coc(CNc2ncnc3nc[nH]c23)c1	inconclusive: 16.6 µM [cytotoxic, partial curve, poor fit]	
O=C(O)C=Cc1ccc(Cn2ccnc2)cc1		inactive: 113%
O=c1ccn([C@@H]2O[C@H](CO)[C@H](O)[C@H]2O)c(=O)[nH]1		inactive: 131%
CNC(=O)c1cc(COc2nnc(Nc3ccc(Cl)cc3)c3ccoc23)ccn1	inconclusive: 18.7 µM [cytotoxic, partial curve, poor fit]	
CCOC(=O)Nc1ccc(NCc2ccc(F)cc2)nc1N	inconclusive: 4.69 µM [cytotoxic, partial curve, poor fit]	
Cc1cccc(-c2[nH]ncc2-c2ccc3ncccc3n2)n1	inconclusive: 1.05 µM [cytotoxic, full curve, poor fit]	
CCOC(=O)c1c(C)n(C)c2ccc(O)cc12	inconclusive: 5.9 µM [cytotoxic, partial curve, poor fit]	
Nc1nc(-c2nn(Cc3ccccc3F)c3ncccc23)nc(N)c1N1CCOCC1	inconclusive: 1.87 µM [cytotoxic, full curve, poor fit]	
CCOc1cc(CC(=O)N[C@@H](CC(C)C)c2ccccc2N2CCCCC2)ccc1C(=O)O	inconclusive: 0.0166 µM [rising, full curve, poor fit]	
Cn1c2cc(S(C)=O)sc2c2cnn(Cc3cccc(N)c3)c(=O)c21 (stereo not given)		inactive: 102%
O=c1c(O)c(-c2cc(O)c(O)c(O)c2)oc2cc(O)cc(O)c12		inactive: 103%

Structure (SMILES)	Potency	viability (% of control)
NS(=O)(=O)c1ccc(NC2=CC(=O)c3ccccc3C2=O)cc1	inconclusive: 14.8 µM [cytotoxic, partial curve, poor fit]	
COc1cc2nccc(Oc3ccc(NC(=O)Nc4ccc(F)cc4F)c(F)c3)c2cc1OC		inactive: 113%
COC1CCC(N(C(=O)C2CCC(C)CC2)c2cc(C3=CCCCC3)sc2C(=O)O)CC1 (stereo not given)	inconclusive: 20.9 µM [cytotoxic, partial curve]	
CN(C)C1CCN(C(=O)c2ccc(NC(=O)Nc3nc(N4CCOCC4)nc(N4CCOCC4)n3)cc2)CC1	inconclusive: 0.0662 µM [cytotoxic, full curve]	
COc1ccc(Nc2nccc(NCCO)n2)cc1	inconclusive: 8.33 µM [cytotoxic, partial curve, poor fit]	
O=C(Nc1cccc(Br)c1)c1cccc(S(=O)(=O)N2CCCCCC2)c1	inconclusive: 16.6 µM [cytotoxic, partial curve]	
CCCc1cc(=O)[nH]c(=S)[nH]1		inactive: 103%
O=C1NC(=O)C(=Cc2ccc3c(c2)OC(F)(F)O3)S1	active: 4.18 µM	
COc1ccc(-c2c(-c3ccc(O)cc3O)n[nH]c2C)cc1	inconclusive: 38.2 µM [cytotoxic, partial curve, poor fit]	
CCCN[C@H]1CCc2nc(N)sc2C1		inactive: 104%
CN(C)S(=O)(=O)c1ccc2c(c1)C(=Cc1cc3c([nH]1)CCCC3)C(=O)N2	inconclusive: 7.43 µM [cytotoxic, partial curve]	
CN1CCN2c3ncccc3Cc3ccccc3C2C1 (stereo not given)		inactive: 95.9%
Nc1ncnc2nc(-c3ccc(N4CCOCC4)nc3)cc(-c3cccc(Br)c3)c12	inconclusive: 23.5 µM [cytotoxic, partial curve]	
O=C(O)c1cn(-c2ccc(F)cc2)c2cc(N3CCNCC3)c(F)cc2c1=O		inactive: 112%
O=C(OCC#CCSc1nnc(-c2cccc3ccccc23)o1)c1cc2ccccc2s1	inconclusive: 11.8 µM [cytotoxic, partial curve, poor fit]	
O=C(N[C@H](CO)[C@H](O)c1ccc([N+](=O)[O-])cc1)C(Cl)Cl	inconclusive: 0.296 µM [cytotoxic, full curve, poor fit]	
O=C(O)C1=CO[C@@H](O[C@@H]2O[C@H](CO)[C@H](O)[C@H](O)[C@H]2O)[C@@H]2C(CO)=CC[C@H]12	inconclusive: 4.69 µM [cytotoxic, partial curve, poor fit]	
CC1(C)S[C@H]2[C@H](NC(=O)[C@@H](N)c3ccc(O)cc3)C(=O)N2[C@@H]1C(=O)O	active: 1.87 µM	
O=C(O)c1ccc(-c2c[nH]c3ncc(-c4ccccc4)cc23)cc1C1CCCC1	inconclusive: 33.2 µM [cytotoxic, single point]	
CC(C)C[C@@H](N)[C@H](O)C(=O)N[C@H](C(=O)N[C@H](C(=O)N[C@@H](CC(=O)O)C(=O)O)C(C)C)C(C)C	inconclusive: 5.26 µM [cytotoxic, partial curve, poor fit]	

In another format: entries from further up.

| Structure (SMILES) | Potency | viability (% of control) |
| --- | --- | --- |
| O=C(Nc1cccc(Br)c1)c1cccc(S(=O)(=O)N2CCCCCC2)c1 | inconclusive: 16.6 µM [cytotoxic, partial curve] |  |
| CCCc1cc(=O)[nH]c(=S)[nH]1 |  | inactive: 103% |
